Laboratory results as given in the supplement of paper PMC12889115.
This is one part of the list. Values are raw readings; no control value is given beside them.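 Primary screen: polymyxin B was added at a level permeabilizing Salmonella outer membranes while sparing inner membranes. DMSO wells, both with and without polymyxin B, established maximum growth. Plate-to-plate variation meant each plate was ranked on its own, and the lowest-OD600 compounds were selected as hits.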

Test system: Salmonella enterica serovar Typhimurium SL1344
Assay: bacterial growth OD600 after 18 h with compound and polymyxin B; higher = more bacterial growth (less inhibition)
Details: 50 µM, Mueller-Hinton broth

SMILES	bacterial growth OD600 (polymyxin B 0.75 µg/mL)	bacterial growth OD600 (polymyxin B 1 µg/mL)
CN(Cc1ccccc1)c1ncccc1CNC(=O)c1cn2cccnc2n1	0.702	
COc1ccc2ccccc2c1CNC1CCN(c2ccc(C(=O)N3CCOCC3)cc2)CC1	0.804	
COc1ccc(C(=O)N(C)CC2CCN(CCc3ccc(Cl)cc3)CC2)c(OC)n1		1.04
Cc1ccc(CN2CCC(CN(C)Cc3c[nH]nc3-c3cccc(F)c3)CC2)o1		1.26
O=C(NCC1CCCN(S(=O)(=O)c2cccnc2)C1)c1ccco1 (centres undefined)		0.993
COc1cccc([C@@H]2C[C@H]3CN(C4CCCC4)C(=O)[C@]34CCCN24)c1	0.981	
COc1ccc(OC)c(CC(=O)N2CCOc3ccc(CN(C)CCc4ccccn4)cc3C2)c1	0.857	
CCC1CN(CC(=O)NCC(c2ccccn2)N2CCOCC2)Cc2cc(OC)ccc2O1 (centres undefined)	0.763	
CCC(=O)N[C@@H]1c2ccccc2C2(CCN(Cc3ccc(CO)o3)CC2)[C@H]1OCCOC	0.864	
COC(=O)c1ccc(CN2CCN(CC3CCCCC3)C(CCO)C2)cc1 (centres undefined)		0.939
COc1ccc(CNC(=O)c2cc(NC(=O)CC3CCCC3)cc3nc(C4CCCO4)n(C)c23)cc1 (centres undefined)	0.811	
Cc1c(CC(=O)NC(C)C2CC2)c2c(n1Cc1ccccc1F)CCCC2=O (centres undefined)		0.487
O=C(c1ccccc1-n1cccn1)N1CCCC(Nc2ccc3c(c2)OCCO3)C1 (centres undefined)		0.911
CCc1nc2cc(C(=O)N3C[C@@H](C)O[C@@H](C)C3)cc(NC(=O)c3ccccc3OC)c2n1C	0.867	
Cc1nc(C)c(CN2CCCC2C(=O)Nc2ccc(-c3cscn3)cc2)nc1C (centres undefined)	0.956	
Cc1cnc(C(=O)N2CCCC(C(=O)c3ccc4c5c(cccc35)CC4)C2)cn1 (centres undefined)		0.761
CC(C)CCC1(C2CCN(C(=O)CCc3cccs3)CC2)NC(=O)N(Cc2ccccn2)C1=O (centres undefined)	0.896	
CCC(NC(=O)c1cc(Cn2c(C)nc3ccccc32)[nH]n1)c1ccncc1 (centres undefined)		1
CCOC(=O)C1(Cc2ccc(F)cc2)CCCN(C(=O)CC)C1 (centres undefined)		0.899

2 records drawn at random from those above, as already listed:
SMILES	bacterial growth OD600 (polymyxin B 0.75 µg/mL)	bacterial growth OD600 (polymyxin B 1 µg/mL)
Cc1ccc(CN2CCC(CN(C)Cc3c[nH]nc3-c3cccc(F)c3)CC2)o1		1.26
Cc1c(CC(=O)NC(C)C2CC2)c2c(n1Cc1ccccc1F)CCCC2=O (centres undefined)		0.487
